Some of these results come from one statement about several compounds together.
Biological target: CDK9 (Homo sapiens, UniProt P50750)
Test: CDK9 degradation assay, Western blot, MOLT4 cells
Format: cell-based
Parameters: endogenous in cells; host or cells: MOLT4 (MOLT-4)
Settings: MOLT-4 cells, 10 nM and/or 100 nM, 7 h treatment time
Procedure: Efficiencies were measured by monitoring their impact on CDK9 itself as well as downstream targets of CDK9 phosphorylation such as AR and Pol II.

Amino acid sequences for entries named in this document (tags omitted).
UniProt P50750, whole entry: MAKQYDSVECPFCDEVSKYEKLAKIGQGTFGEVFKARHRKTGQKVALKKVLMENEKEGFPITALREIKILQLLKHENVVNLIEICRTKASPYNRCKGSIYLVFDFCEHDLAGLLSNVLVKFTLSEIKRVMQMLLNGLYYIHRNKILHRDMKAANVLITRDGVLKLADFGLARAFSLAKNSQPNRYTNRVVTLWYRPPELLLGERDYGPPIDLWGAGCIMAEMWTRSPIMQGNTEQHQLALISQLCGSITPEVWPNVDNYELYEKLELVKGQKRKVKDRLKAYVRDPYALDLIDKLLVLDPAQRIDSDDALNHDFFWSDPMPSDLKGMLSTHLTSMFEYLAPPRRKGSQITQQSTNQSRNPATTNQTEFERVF

SMILES | decrease in CDK9 levels
CCCc1cc(N[C@@H]2CC[C@@H](NC(=O)CCOCCN[C@H](C(=O)N3C[C@H](O)C[C@H]3C(=O)NCc3ccc(-c4scnc4C)cc3)C(C)(C)C)C2)n2nccc2n1 [KI-ARv3-D11, (2S,4R)-1-((S)-3,3-dimethyl-2-((2-(3-oxo-3-(((1R,3R)-3-((5-propylpyrazolo[1,5-a]pyrimidin-7-yl)amino)cyclopentyl)amino)propoxy)ethyl)amino)butanoyl)-4-hydroxy-N-(4-(4-methylthiazol-5-yl)benzyl)pyrrolidine-2-carboxamide] | up to 80%
CCCc1cc(N[C@@H]2CC[C@@H](NC(=O)CCOCCOCCN[C@H](C(=O)N3C[C@H](O)C[C@H]3C(=O)NCc3ccc(-c4scnc4C)cc3)C(C)(C)C)C2)n2nccc2n1 [KI-ARv3-D12, (2S,4R)-1-((S)-3,3-dimethyl-2-((2-(2-(3-oxo-3-(((1R,3R)-3-((5-propylpyrazolo[1,5-a]pyrimidin-7-yl)amino)cyclopentyl)amino)propoxy)ethoxy)ethyl)amino)butanoyl)-4-hydroxy-N-(4-(4-methylthiazol-5-yl)benzyl)pyrrolidine-2-carboxamide] | up to 80%
CCCc1cc(N[C@@H]2CC[C@@H](NC(=O)CCOCCOCCOCCOCCN[C@H](C(=O)N3C[C@H](O)C[C@H]3C(=O)NCc3ccc(-c4scnc4C)cc3)C(C)(C)C)C2)n2nccc2n1 [KI-ARv3-D14, (2S,4R)-1-((S)-2-(tert-butyl)-18-oxo-18-(((1R,3R)-3-((5-propylpyrazolo[1,5-a]pyrimidin-7-yl)amino)cyclopentyl)amino)-6,9,12,15-tetraoxa-3-azaoctadecanoyl)-4-hydroxy-N-(4-(4-methylthiazol-5-yl)benzyl)pyrrolidine-2-carboxamide] | up to 80%
CCCc1cc(N[C@@H]2CC[C@@H](NC(=O)c3ccc(-c4ccc(CN[C@H](C(=O)N5C[C@H](O)C[C@H]5C(=O)NCc5ccc(-c6scnc6C)cc5)C(C)(C)C)cc4)cc3)C2)n2nccc2n1 [KI-ARv3-D18, (2S,4R)-1-((S)-3,3-dimethyl-2-(((4′-(((1R,3R)-3-((5-propylpyrazolo[1,5-a]pyrimidin-7-yl)amino)cyclopentyl)carbamoyl)-[1,1′-biphenyl]-4-yl)methyl)amino)butanoyl)-4-hydroxy-N-(4-(4-methylthiazol-5-yl)benzyl)pyrrolidine-2-carboxamide] | up to 80%
